# According to PubChem BioAssay AID493014 (National Center for Advancing Translational Sciences (NCATS), 2011):
# The list shows a part of the results. Shown are side measurements of this screen, not its main read-out; they come without a call. The list favours compounds with an active or inconclusive main result. Potencies come from curve fits of mixed quality, noted in brackets.
# Assay: qHTS Assay to Find Inhibitors of Chronic Active B-Cell Receptor Signaling
# Details: ABC-DLBCL IkBa-CBG/CBR reporter, luminescence ratio (green luciferase fused to IkBa over red control in TMD8 lymphoma cells), 4 h
# Procedure, shortened: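 Compounds up to 46 uM were incubated four hours with TMD8 cells whose green CBG68 luciferase is fused to IkappaBalpha; red CBR luminescence normalised the signal, and concentration-effect curves were fitted to fusion, red and ratio data.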
# [1] = measured here: CBR red luminescence, cell number
SMILES,AC50 [1],AC50 (measured here: IkBa-CBG green luminescence)
Cc1ccc(C(C(=O)NC2CCCCC2)N2CCCC2)cc1 (stereo unspecified),"20.6 µM [falling, single point]",–
O=C(CCC1CCCCC1)Nc1nccs1,"14.1 µM [falling, single point]",–
Nc1nc2ccc(C(=O)NCCOC(=O)C3CCCCC3)cc2s1,"0.251 µM [rising, full curve, poor fit]",–
Cc1ccc2[nH]c(=O)c(CN(CCc3ccccc3)C(c3nnnn3Cc3ccco3)C(C)C)cc2c1 (stereo unspecified),"7.94 µM [rising, single point]",–
CCOc1ccc(NC(=O)CCNS(=O)(=O)c2cccs2)cc1,"2.31 µM [rising, single point]",–
CCCc1nc2ccccc2c(=O)n1/N=C/c1ccc(O)c(O)c1,"7.94 µM [falling, partial curve]",–
COc1cccc2cc(C(=O)Nc3cc(C)cc(C)c3)/c(=N/NS(=O)(=O)c3ccccc3)oc12,"0.0891 µM [falling, full curve, poor fit]",–
COC(=O)c1ccc(-c2ccc(C(c3c(C)[nH][nH]c3=O)c3c(C)[nH][nH]c3=O)o2)cc1,"5.01 µM [falling, partial curve]",–
CCN(CC)C(=O)CCCSc1nnc(Nc2ccccc2F)s1,"4.47 µM [falling, partial curve]",–
Cc1ccc(S(=O)(=O)Nc2ccc(NC(=O)c3cccs3)cc2)cc1,"20 µM [rising, partial curve, poor fit]",–
CCOC(=O)CC(=O)COc1nc2cc3c(nc2o1)CCCC3,"10 µM [falling, partial curve, poor fit]",–
N/C(=N\OC(=O)c1ccccc1)c1ccccn1,"1.58 µM [falling, partial curve]",–
COc1cccc(C2/C(=C(/O)c3cnn(-c4ccccc4)c3C)C(=O)C(=O)N2CCN(C)C)c1OC (stereo unspecified),"6.31 µM [rising, single point]",–
O=C(/C=C/c1ccc(Br)cc1)NCc1cccs1,"18.4 µM [falling, single point]",–
COc1ccc(-n2c(C)cc(C(=O)CN3C(=O)NC4(CCc5ccccc54)C3=O)c2C)cc1 (stereo unspecified),"25.9 µM [falling, partial curve, poor fit]",–
Cc1ccc(COC(=O)Cc2coc3cc(O)ccc23)cc1,"12.6 µM [rising, partial curve, poor fit]",–
NCc1c(O)ccc2ccccc12,"7.94 µM [falling, partial curve, poor fit]",–
Cc1onc(-c2ccccc2)c1C(=O)N1CCN(C)CC1,"25.9 µM [rising, single point]",–
Nc1ccc2c(c1)C(=O)C(=O)c1ccccc1-2,"1.3 µM [falling, full curve, poor fit]","3.26 µM [rising, partial curve, poor fit]"
O=C(N/N=C/c1ccc(Br)s1)c1ccc([N+](=O)[O-])cc1,"0.794 µM [rising, full curve, poor fit]",–
O=C(CS(=O)(=O)c1ccccc1)N1CCN(c2ccccc2)CC1,"4.11 µM [rising, partial curve, poor fit]",–
CN(C)c1ccc(N=c2sc3ccccc3n2C)cc1,"4.11 µM [rising, single point]",–

SMILES,AC50 [1],AC50 (measured here: IkBa-CBG green luminescence)
O=C(NCc1ccccc1Br)c1ccco1,"7.31 µM [falling, partial curve, poor fit]",–
CC(C)Cc1cc(C(=O)Nc2cccc(O)c2)no1,"10 µM [falling, partial curve]",–
CCC(=O)Nc1nnc(S(=O)(=O)N(C)c2cc(C)cc(C)c2)s1,"4.47 µM [rising, single point]",–
COc1ccc(-n2nc(C(=O)NCC(=O)N3CCN(c4ccccc4OC)CC3)c3ccccc3c2=O)cc1OC,"3.98 µM [rising, partial curve, poor fit]",–
COc1cc(C2C(C(=O)c3ccc(C)o3)=C(O)C(=O)N2c2cc(C)on2)ccc1O (stereo unspecified),"5.01 µM [rising, single point]",–
COc1cc(C(C(=O)NC2CCCC2)N(CCO)C(=O)Cn2nnc(-c3ccc(C)o3)n2)ccc1O (stereo unspecified),"3.16 µM [falling, partial curve, poor fit]",–
CCCC(=O)n1nc(-c2ccco2)nc1SCc1ccccc1,"20.6 µM [falling, partial curve]",–
Cc1onc(-c2ccccc2)c1C(=O)Nc1sc2c(c1C#N)CCC2,"5.8 µM [falling, partial curve, poor fit]",–
COCC(=O)N(C)C1(c2nnnn2CCOC(=O)Nc2ccc(Cl)cc2)CCCC1,"3.26 µM [rising, partial curve]",–
O=C(/C=C/c1ccco1)N(Cc1ccccc1)C1CCS(=O)(=O)C1 (stereo unspecified),"14.1 µM [rising, single point]",–
COCCNS(=O)(=O)c1cc(OC)c(Cl)cc1Cl,"2.59 µM [rising, single point]",–
CSc1ccccc1NC(=O)COc1ccc2c(c1)OCO2,"6.51 µM [falling, partial curve]",–
CCSc1nnc(NC(=O)C(C)(C)C)s1,"6.31 µM [rising, full curve, poor fit]",–
O=C(NC1CCCCC1)c1ccc(N2CCOCC2)c([N+](=O)[O-])c1,"5.01 µM [rising, full curve, poor fit]",–
N#Cc1c(=O)c2nc(NCCCO)ncc2n2c(=O)c3ccccc3[nH]c12,"10 µM [falling, partial curve]",–
Cc1cc(SCC(=O)Nc2ccc(O)cc2)n2nc(C)c(-c3ccccc3)c2n1,"35.5 µM [falling, single point]",–
CNc1ccccc(C(=O)/C=C/c2ccccc2OC)c1=O,"18.4 µM [falling, partial curve]",–
CC(=O)c1c(C)[nH]c(C(=O)NCc2ccc(C)cc2)c1C,"2.06 µM [falling, partial curve, poor fit]",–
CC1(C)CC(=O)C2=C(C1)OC(N)=C(C#N)C21C(=O)N(Cc2ccccc2Cl)c2ccccc21 (stereo unspecified),"0.461 µM [falling, full curve, poor fit]",–
N#C/C(C(N)=O)=C1/CCc2ccccc2N1,"4.61 µM [falling, full curve, poor fit]",–
O=C1NCCOC(=O)[C@H](Cc2ccc(F)cc2)C/C=C\C[C@@H]1CC(=O)N(CCO)Cc1ccccc1,"6.51 µM [falling, single point]",–
Cc1nc2cc(NC(=O)Nc3ccccc3Cl)ccc2n1C,"12.6 µM [falling, partial curve]",–

# Structural class, the compounds so far with a Cl atom (four)
SMILES,AC50 [1],AC50 (measured here: IkBa-CBG green luminescence)
COCC(=O)N(C)C1(c2nnnn2CCOC(=O)Nc2ccc(Cl)cc2)CCCC1,"3.26 µM [rising, partial curve]",–
COCCNS(=O)(=O)c1cc(OC)c(Cl)cc1Cl,"2.59 µM [rising, single point]",–
CC1(C)CC(=O)C2=C(C1)OC(N)=C(C#N)C21C(=O)N(Cc2ccccc2Cl)c2ccccc21 (stereo unspecified),"0.461 µM [falling, full curve, poor fit]",–
Cc1nc2cc(NC(=O)Nc3ccccc3Cl)ccc2n1C,"12.6 µM [falling, partial curve]",–

# The list continues:

SMILES,AC50 [1],AC50 (measured here: IkBa-CBG green luminescence)
O=C(Nc1nccs1)c1ccc(S(=O)(=O)N2CCOCC2)cc1,"12.6 µM [falling, partial curve]",–
O=C(NN=C1CCCCC1)c1ccccc1OCc1ccc(F)cc1,"20.6 µM [falling, single point]",–
O=C(O)C(Cc1ccccc1)N1C(=O)/C(=C/c2ccccc2)SC1=S (stereo unspecified),"25.9 µM [falling, single point]",–
CCCOC(=S)NC(=O)c1sc2ccccc2c1Cl,"20 µM [falling, single point]",–
CC(=O)Nc1ccc(S(=O)(=O)N2CCN(c3cnn(C)c(=O)c3Cl)CC2)cc1,"5.01 µM [rising, partial curve, poor fit]",–
CC(NC(=O)CSc1nc2sc3c(c2c(=O)n1-c1ccccc1)CCCC3)c1ccccc1 (stereo unspecified),"2.31 µM [falling, partial curve, poor fit]",–
O=C(COc1ccc(Br)cc1)NCC1COc2ccccc2O1 (stereo unspecified),"1.64 µM [rising, full curve]",–
CCOC(=O)c1ccc(NC(=O)c2ccc(NS(C)(=O)=O)cc2)cc1,"18.4 µM [falling, partial curve]",–
Cn1c(C(=O)NCc2ccccc2)cc2oc3ccccc3c21,"0.58 µM [falling, full curve, poor fit]",–
O=C(NNC(=O)c1ccc(-n2cncn2)c([N+](=O)[O-])c1)c1ccccc1,"20.6 µM [falling, partial curve]",–
CCNCC(=O)N1c2ccccc2CCc2ccc(NC(=O)OC(C)C)cc21,"12.6 µM [falling, single point]",–
Cn1c(/C(C#N)=C/c2cccc(O)c2)nc2ccccc21,"10 µM [falling, single point]",–
O=C(Cc1nc2ccccc2s1)c1ccc(O)cc1O,"13 µM [falling, single point]",–
CCCn1c(=O)c(C(=O)NNC(=O)c2ccccc2[N+](=O)[O-])c(O)c2ccccc21,"12.6 µM [falling, partial curve]",–
S=C(Nc1ccc(-c2nc3ccccc3[nH]2)cc1)Nc1cccnc1,"8.91 µM [falling, partial curve]",–
O=C(c1ccccc1Cl)N1CCN(S(=O)(=O)c2cccs2)CC1,"1.41 µM [rising, full curve, poor fit]",–
Cc1c(CCCN)c2ccccc2n1Cc1ccccc1,"10 µM [falling, partial curve, poor fit]",–
CC(=O)Nc1ccc(S(=O)(=O)NC(C)C(=O)OCCOc2ccc(F)cc2)cc1 (stereo unspecified),"29.1 µM [rising, single point]",–
COc1cccc(NC(=O)Nc2cccn(Cc3ccccc3)c2=O)c1,"7.08 µM [falling, partial curve]",–
O=C(Cc1ccccc1)N/N=C/c1cc(Br)cc(Cl)c1O,"7.08 µM [rising, partial curve]",–
COc1ccc(C(=O)N(Cc2ccccc2)c2cccc(C)c2)c(OC)c1OC,"3.55 µM [rising, full curve, poor fit]",–
